Results published in PubChem BioAssay AID1347076 (National Center for Advancing Translational Sciences (NCATS), 2019).
Hit rate of the full screen: of about 400,000 compounds, about 13,000 (3.2%) were called active. Inconclusive results, whose numbers are uncertain, are shown with a selection of clear calls. Calls come from the whole dose curve; as a rule, active = well fitted cell-killing curve with a large enough effect; inconclusive = small, poorly fitted or top-dose-only effect, or effect the other way; inactive = flat fitted curve, though single readings scatter. Potencies of inconclusive entries are doubtful fits and often do not repeat.

Assay: qHTS assay for MDR1-selective chemotherapeutics: Primary screen using the drug-selected MDR subline cells KB-V1; note: nearly all actives have a fitted effect of over 60% in size
Conditions: KB-V1 MDR cells viability, CellTiter-Glo, 72 h; series mostly up to 46.1 µM
How it was run: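 Compound-treated KB-V1 multidrug-resistant cells, 72 h, 37 degrees C; viability by CellTiter-Glo. Fitted qHTS curves give the values.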
Potency is the fitted concentration of half-maximal effect.

SMILES | Potency
COc1ccccc1C(=O)NC(CCSC)C(=O)OCC(=O)c1ccc[nH]1 (stereo not given) | inconclusive: 18.4 µM [cytotoxic, single point]
O=C(c1ccc(Cl)cc1)C1CCCN(Cc2cnn(-c3ccccc3)c2)C1 (stereo not given) | inconclusive: 5.8 µM [cytotoxic, partial curve]
COc1ccc(-n2nc3c(N4CCC(C(=O)NCCc5ccccc5C)CC4)nnc(C)c3c2C)cc1 | inactive
COc1cc(C(=O)NC2CCCc3c2cnn3-c2ccccc2F)cc(OC)c1OC (stereo not given) | inconclusive: 32.6 µM [cytotoxic, single point]
CC(=O)c1cccc(-c2cnc3c(NC=O)cc(-c4ccc(N(C)C)cc4)cn23)c1 | active: 18.4 µM
Cc1ccc(-c2cc(C(=O)N3N=C(C(F)F)CC3(O)C(F)F)c3ccccc3n2)cc1C (stereo not given) | inconclusive: 23.1 µM [cytotoxic, single point]
COc1ccccc1CNC(=O)c1ccc(N(C)S(=O)(=O)c2ccc(C)cc2)cc1 | inactive
O=C(O)CCNc1nc(-c2ccccc2)nc2ccccc12 | inactive
S=C(N/N=C/c1ccccc1)N1CCOCC1 | inconclusive: 29.1 µM [cytotoxic, single point]
CC(=O)Nc1ncc(N=Nc2cccc(C(F)(F)F)c2)s1 | inactive
Cc1cc(NC(=O)c2cnn(-c3ccccc3)c2-n2cccc2)ccc1Br | inconclusive: 29.1 µM [cytotoxic, single point]
Cc1ccc(C)c(N=Nc2ccc(O)c3ncccc23)c1 | inconclusive: 1.16 µM [cytotoxic, full curve, poor fit]
CCOC(=O)C(C(=O)OCC)C(C)(C)/C(C)=N\Nc1ccc([N+](=O)[O-])cc1[N+](=O)[O-] | inconclusive: 8.2 µM [cytotoxic, partial curve]
CC1CCCCN1CCCNC(=O)c1ccc(N2CCCC2=O)cc1 (stereo not given) | inconclusive: 8.2 µM [rising, partial curve]
CC(=O)N1CCc2cc(S(=O)(=O)NC(CC(C)C)C(=O)N3CCCC3)ccc21 (stereo not given) | inactive
CCN(CC(=O)Nc1ccc(N2CCOCC2)cc1)C(=O)c1ccc(C#N)cc1 | inactive
Cc1noc(C)c1-c1ccc(C(=O)NCc2ccncc2)c2occc12 | inconclusive: 6.51 µM [cytotoxic, partial curve]
CCc1cccc(NC(=O)Cn2c(=O)n(CC3CCC(C(=O)NC)CC3)c(=O)c3sccc32)c1 (stereo not given) | inactive
O=C(NCc1nnnn1-c1ccc(Cl)cc1)C(=O)c1c[nH]c2ccccc12 | inactive
O=C(CSc1nnnn1-c1ccc(F)cc1)c1ccc(O)c(O)c1 | inactive
O=c1[nH]c(=S)[nH]cc1Oc1ccc(Br)cc1Br | inconclusive: 29.1 µM [rising, single point]
CCCCCCc1nnc(NC(=O)OCC)s1 | active: 16.4 µM
CC(C)Sc1nnc([C@H](C)NC(=O)OC(C)(C)C)o1 | inconclusive: 18.4 µM [cytotoxic, partial curve]
Cc1ccc(C)c(NC(=O)CCN2CCCCC2)c1 | inactive

SMILES | Potency
Oc1ccc(C(=S)N2CCN(Cc3ccccc3)CC2)cc1 | inconclusive: 20.6 µM [cytotoxic, single point]
N#CC1=C(N)N(c2ccc(Cl)cc2)C2=C(C(=O)CCC2)C1c1cc(CN2CCOCC2)cs1 (stereo not given) | inconclusive: 32.6 µM [rising, partial curve, poor fit]
CCc1ccc2oc(C(=O)NCc3ccncc3)c(C)c2c1 | active: 11.6 µM
COc1cccc(CNC(=O)Cn2c(=O)cc(C)c3c(C)nn(C)c32)c1OC | inconclusive: 29.1 µM [cytotoxic, single point]
CCC(=O)NC(c1ccc(C)cc1)c1cc(Cl)c2cccnc2c1O (stereo not given) | inconclusive: 0.58 µM [cytotoxic, full curve, poor fit]
Cc1sc2ncnc(NCC(O)c3ccc([N+](=O)[O-])cc3)c2c1C (stereo not given) | inconclusive: 2.59 µM [cytotoxic, full curve, poor fit]
C/C(=N\NC(=O)COc1ccc(C(C)(C)C)cc1)c1ccc(N2CCOCC2)cc1 | inactive
O=C(c1ccccc1)c1nn(-c2ccccc2)c(=O)cc1C(F)(F)F | inconclusive: 29.1 µM [cytotoxic, single point]
CC12CCC(C(=O)n3c1nc1ccccc13)C2(C)C (stereo not given) | inactive
CCCN(CCC)Cc1c(C(=O)N/N=C/C(C)=C\c2ccco2)nnn1-c1nonc1N | inconclusive: 7.31 µM [cytotoxic, partial curve]
CCOCCCN(C(=O)CCC(=O)Nc1cc(C)on1)C(C(=O)NC(C)(C)C)c1ccccc1Cl (stereo not given) | inconclusive: 11.6 µM [cytotoxic, partial curve]
CCn1cc(C(=O)NCCCOC(C)C)c(=O)c2cc(S(=O)(=O)N3CCC(C)CC3)ccc21 | inactive
CCCSC1=NC2(CCN(C(=O)NC3CCCCC3)CC2)N=C1c1ccc(OC)cc1 | inactive
Cc1occc1-c1nc(-c2ccccn2)no1 | inconclusive: 16.4 µM [cytotoxic, single point]
c1ccc(COc2ccccc2CNC23CC4CC(CC(C4)C2)C3)cc1 | inconclusive: 29.1 µM [cytotoxic, single point]
CC1(C)c2ccccc2C(=O)c2ccccc21 | inactive
CN(C)CCNC(=O)c1cccc2ccc(-c3ccc(-c4ccccc4)cc3)nc12 | active: 11.6 µM
CSC(=NC#N)N1CCN(c2cccc(Cl)c2)CC1 | inconclusive: 25.9 µM [cytotoxic, single point]
CCC(=O)N1N=C(c2c(O)n(C)c(=O)n(C)c2=O)CC1c1ccccc1 (stereo not given) | inconclusive: 6.51 µM [cytotoxic, full curve, poor fit]
C(=C\c1ccnc2ccccc12)/c1ccc2ccccc2n1 | inconclusive: 23.1 µM [cytotoxic, partial curve, poor fit]
Cc1cc(=O)oc2c1c(C)nn2-c1cccc(Cl)c1 | inconclusive: 6.51 µM [cytotoxic, full curve, poor fit]
Cc1cc(NC(=O)CSCC(=O)Nc2cc(Cl)ccc2N2CCN(C)CC2)no1 | inactive
COc1cccc(NC(=O)c2cnc(SCC(=O)NCc3ccc4c(c3)OCO4)n(C)c2=O)c1 | inactive
O=C(O)c1ccc(CS(=O)c2cccc(C(F)(F)F)c2)o1 (stereo not given) | inconclusive: 22.4 µM [cytotoxic, single point]

SMILES | Potency
O=C1c2ccccc2C(c2nnnn2Cc2ccccc2)N1Cc1cccnc1 (stereo not given) | inconclusive: 20.6 µM [cytotoxic, single point]
Cn1c(=O)[nH]c(=O)c2c1nc(NCc1ccco1)n2CCCc1ccccc1 | inconclusive: 16.4 µM [cytotoxic, partial curve, poor fit]
O=C(CN1CCN(c2cccc(C(F)(F)F)c2)CC1)N(C1CCCC1)C1CCS(=O)(=O)C1 (stereo not given) | active: 20.6 µM
OCCN=C1CCCc2c1[nH]c1ccc(Cl)cc21 | active: 0.731 µM
CCC(=O)NC1=C(NC(C)c2ccccc2)C(=O)c2ccccc2C1=O (stereo not given) | inconclusive: 35.5 µM [cytotoxic, single point]
Cc1ccccc1OCCC(=O)Nc1ccc(N2CCOCC2)cc1N1CCOCC1 | inactive
N#C/C(=C/c1ccc(O)cc1)c1nc(-c2ccc(-c3ccccc3)cc2)cs1 | inconclusive: 1.46 µM [rising, full curve, poor fit]
CN(Cc1cnccn1)Cc1nc(Cc2ccccc2F)no1 | inconclusive: 18.4 µM [rising, single point]
CC1Cc2ccccc2N1C(=O)CSc1ncccc1C(=O)O (stereo not given) | inconclusive: 14.6 µM [rising, partial curve, poor fit]
CCOC(=O)C1CCCN(C(=O)C2CCCN(S(=O)(=O)c3ccc4c(c3)oc(=O)n4C)C2)C1 (stereo not given) | inactive
COc1cc([N+](=O)[O-])ccc1NC(=O)COC(=O)CCS(=O)(=O)c1ccc(C)cc1 | inconclusive: 29.1 µM [rising, single point]
Cc1c(NC2=CC(=O)CC(C)(C)C2)ccc([N+](=O)[O-])c1C | inconclusive: 16.4 µM [cytotoxic, partial curve]
C=CCCC(=O)NC1CC(C)(C)Cc2c1cnn2-c1ccc(OC)cc1 (stereo not given) | inconclusive: 3.66 µM [cytotoxic, full curve]
COc1cc(/C=C2/SC(=S)N(CCC(=O)N3CCN(C)CC3)C2=O)cc(OC)c1OC | inactive
Cc1ccc(N2CC(C(=O)Nc3cccc(S(=O)(=O)N4CCOCC4)c3)CC2=O)cc1 (stereo not given) | inactive
Cc1ccc(S(=O)(=O)Nc2ccccc2CNc2ccccn2)cc1 | active: 20.6 µM
O=C(OCC(=O)c1ccc(Cl)cc1Cl)c1ccccn1 | inconclusive: 9.2 µM [rising, partial curve, poor fit]
O=C(NC1=NCCS1)c1cccc(S(=O)(=O)N2CCc3ccccc32)c1 | inconclusive: 9.2 µM [cytotoxic, partial curve]
COc1ccccc1CNC(=O)c1oc2ccc(S(=O)(=O)N3CCOCC3)cc2c1C | inconclusive: 2.06 µM [cytotoxic, full curve, poor fit]
CC1CCN(CCCNC(=O)CN2C(=O)CSc3ccc(S(=O)(=O)N4CCCCC4)cc32)CC1 | inconclusive: 29.1 µM [rising, single point]
NC(N)=N/N=C/c1cc([N+](=O)[O-])ccc1O | inactive
COc1ccc2[nH]c3c(c2c1)CCN1C(=O)C(CC(=O)NCc2ccc(OC)c(OC)c2)C[C@H](C(=O)N2CCCCC2)[C@@]31CCc1ccccc1 (stereo not given in full) | inconclusive: 29.1 µM [rising, single point]

Three of these compounds, set out differently.

| SMILES | Potency |
| --- | --- |
| Cc1cc(NC(=O)c2cnn(-c3ccccc3)c2-n2cccc2)ccc1Br | inconclusive: 29.1 µM [cytotoxic, single point] |
| Cc1ccc(C)c(NC(=O)CCN2CCCCC2)c1 | inactive |
| N#C/C(=C/c1ccc(O)cc1)c1nc(-c2ccc(-c3ccccc3)cc2)cs1 | inconclusive: 1.46 µM [rising, full curve, poor fit] |
